The nature of this data set: Amount of active penetrated inside hair after soaking. The note with it: pH 4.2, 40 deg C.

We go through one compound from patent publication US10660835B2, “Method for hair frizz reduction” (The Procter & Gamble Company, priority 2015, dated 2020).

Consider `O=C(O)c1cc(Cl)ccc1O` [5-Chlorosalicylic acid], for which the “mg/g of Cl Salicylic acid” value (10 min soaking) was 19 mg/g; the “mg/g of Cl Salicylic acid” value (20 min soaking) is recorded as 25 mg/g; the “mg/g of Cl Salicylic acid” value (30 min soaking) was 30 mg/g; the “mg/g of Cl Salicylic acid” value (1 hr soaking) was found to be 32 mg/g; the “mg/g of Cl Salicylic acid” value (2 hr soaking) was found to be 32.8 mg/g.
